Binding data for two substances are collected here from paper PMC6884511.

Sequences of proteins named here, by UniProt entry; tags and fusion partners are left off.
UniProt Q06413: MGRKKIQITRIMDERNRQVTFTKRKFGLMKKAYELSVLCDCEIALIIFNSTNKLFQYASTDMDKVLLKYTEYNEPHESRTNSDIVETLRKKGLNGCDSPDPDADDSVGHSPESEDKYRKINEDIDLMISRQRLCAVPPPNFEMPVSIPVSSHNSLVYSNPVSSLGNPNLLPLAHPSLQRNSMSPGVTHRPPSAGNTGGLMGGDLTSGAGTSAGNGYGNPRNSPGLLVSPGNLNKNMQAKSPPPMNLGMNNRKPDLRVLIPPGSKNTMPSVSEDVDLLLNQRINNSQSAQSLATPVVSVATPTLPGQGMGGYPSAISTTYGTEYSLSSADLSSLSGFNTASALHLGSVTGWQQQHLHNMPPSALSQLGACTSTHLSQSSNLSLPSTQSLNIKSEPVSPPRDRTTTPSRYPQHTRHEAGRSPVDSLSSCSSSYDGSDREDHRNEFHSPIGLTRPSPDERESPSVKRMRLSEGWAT
UniProt P08659: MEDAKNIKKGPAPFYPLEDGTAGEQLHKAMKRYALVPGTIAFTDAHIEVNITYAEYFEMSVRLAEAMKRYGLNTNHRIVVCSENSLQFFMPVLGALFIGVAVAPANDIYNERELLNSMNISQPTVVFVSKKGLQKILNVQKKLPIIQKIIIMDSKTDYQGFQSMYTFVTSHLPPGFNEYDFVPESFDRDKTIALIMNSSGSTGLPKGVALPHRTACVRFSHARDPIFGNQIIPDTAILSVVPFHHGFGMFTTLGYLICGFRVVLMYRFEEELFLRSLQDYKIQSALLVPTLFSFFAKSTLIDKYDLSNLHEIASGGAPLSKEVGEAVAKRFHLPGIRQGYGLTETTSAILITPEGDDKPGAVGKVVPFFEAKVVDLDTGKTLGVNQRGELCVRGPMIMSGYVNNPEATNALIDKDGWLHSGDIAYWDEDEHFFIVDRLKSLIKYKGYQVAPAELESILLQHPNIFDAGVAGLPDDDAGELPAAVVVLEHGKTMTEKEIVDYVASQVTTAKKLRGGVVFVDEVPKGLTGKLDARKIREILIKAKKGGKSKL

One experiment deals with MBP-TBX5 (UniProt Q99593). In words: pull-down; MBP-TBX5 immobilised on amylose resin or GST-MEF2C on glutathione sepharose beads (2-5 µg), incubated with 35S-labelled in vitro translated protein; 50 mM Tris pH 7.4, 100 mM NaCl, 0.05% NP40, 1 mM DTT, 10% glycerol, 0.05% BSA, 2 hours at 4 °C; SDS-PAGE, PhosphorImager; only the target purified.
The target in the next experiment is GST-MEF2C (UniProt Q06413). The description is as above.

These are yes or no findings as the source states them, for the method shown. In cells and extracts the contact can be indirect. Some binding calls cover weakened binding; strength is not graded here. For part of these data: Sequences can lack the tags named with a protein.

As to “Radiolabelled luciferase control protein (from UniProt P08659 1-550) (enzyme)”, the binding entry with MBP-TBX5 and with GST-MEF2C was “no binding” each time.

Turning to “radiolabelled MEF2C (from UniProt Q06413 1-473)”, the binding entry with MBP-TBX5 was “binds”.
